Assay results published in PubChem BioAssay AID504847 (National Center for Advancing Translational Sciences (NCATS), 2011).
Out of some 400,000 compounds screened, about 3,700 (0.93%) were called active. The inconclusive results got no clear call from the source; some entries with a clear call stand among them for comparison. Calls come from the whole dose curve; as a rule, active = well fitted inhibition curve with a large enough effect; inconclusive = small, poorly fitted or top-dose-only effect, or another doubt; inactive = no such curve, though single readings can be large or run the other way. Where the call is inconclusive, the potency comes from a doubtful curve fit.

Chains of the proteins cited; added tags and fusions are not shown. Lines headed by an entry give the natural chain unless they say otherwise; changes in a name come on top.
UniProt P11473: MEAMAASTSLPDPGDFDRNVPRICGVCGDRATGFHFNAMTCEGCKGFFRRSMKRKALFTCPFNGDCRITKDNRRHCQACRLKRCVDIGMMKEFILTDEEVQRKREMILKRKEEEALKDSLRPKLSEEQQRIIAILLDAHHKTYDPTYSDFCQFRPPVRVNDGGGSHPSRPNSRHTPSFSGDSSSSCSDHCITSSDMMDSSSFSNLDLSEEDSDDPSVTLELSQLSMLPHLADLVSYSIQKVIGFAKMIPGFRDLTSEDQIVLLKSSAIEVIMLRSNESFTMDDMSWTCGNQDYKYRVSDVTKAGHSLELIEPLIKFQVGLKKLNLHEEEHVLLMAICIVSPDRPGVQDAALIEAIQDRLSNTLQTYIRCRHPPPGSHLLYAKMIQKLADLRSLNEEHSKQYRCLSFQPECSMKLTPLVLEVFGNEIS

Biological target: Vitamin D3 receptor (Homo sapiens) (UniProt P11473)
Assay: Inhibitors of the vitamin D receptor (VDR): qHTS
Conditions: VDR-SRC2-3 peptide fluorescence polarization, 2 h; max response, negative = inhibition: hits give low values
In short: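 Fluorescence polarization assay of small-molecule disruption of VDR binding to coregulator peptide SRC2-3. Compounds and controls pin-transferred, then read after 2 h incubation at ambient room temperature.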
% is set by controls: 0 for no effect and ±100 for the full control effect; potency is the fitted concentration of half-maximal effect.

| SMILES | Potency | max response, negative = inhibition |
| --- | --- | --- |
| COc1ccc(C(=O)NC(=S)NCc2cccnc2)cc1[N+](=O)[O-] | inconclusive: 100 µM [inhibitor, partial curve, poor fit] | – |
| O=c1cnc2cncnc2n1Cc1ccccc1Cl | active: 39.8 µM | – |
| CCn1c(-c2ccccc2)c(C(=O)CCl)c2ccccc21 | inconclusive: 56.2 µM [inhibitor, partial curve, poor fit] | – |
| Cc1ccc(N(Cc2cccs2)C(=O)COc2cccc(C)c2)cc1 | – | inactive: 12.1% |
| N#C/C(=C\c1ccccc1)C(=O)N1CCN(c2ccccc2F)CC1 | active: 44.7 µM | – |
| CCN1C(=O)/C(=C/c2ccc(C)o2)N(C)C1=S | inconclusive: 89.1 µM [inhibitor, single point] | – |
| COC(=O)c1ccc(C(C2C(=O)CC(C)(C)CC2=O)C2C(=O)CC(C)(C)CC2=O)cc1 | inconclusive: 70.8 µM [inhibitor, partial curve] | – |
| COc1ccc(C2C(C(=O)c3ccco3)=C(O)C(=O)N2c2nnc(C)s2)cc1OC (centres undefined) | – | inactive: 17.8% |
| CC1=C(C#N)C(/C=N/OCc2ccc(F)cc2Cl)CC(=O)N1 (centres undefined) | inconclusive: 79.4 µM [inhibitor, partial curve] | – |
| Cc1ccc(S(=O)(=O)NN2C(=O)/C(=C/c3ccc(C(=O)O)cc3)SC2=S)cc1 | inconclusive: 79.4 µM [inhibitor, single point] | – |
| O=C(O)c1cc(-c2ccc(/C=N/Nc3ccc([N+](=O)[O-])cn3)o2)ccc1Cl | inconclusive: 79.4 µM [inhibitor, single point] | – |
| Cc1ccc(S(=O)(=O)NN/C(=N/S(=O)(=O)c2ccccc2)c2ccccc2)cc1 | – | inactive: 10.5% |
| C=CCN(CC=C)S(=O)(=O)c1ccc2nc(NC(=O)C3CCCO3)sc2c1 (centres undefined) | – | inactive: -3.47% |
| O=C(CSC1=Nc2ccccc2C2CC=NN12)Nc1ccc2c(c1)OCO2 (centres undefined) | inconclusive: 17.8 µM [inhibitor, partial curve, poor fit] | – |
| CCOc1ccc(CCNC(=O)c2ccc3ccccc3n2)cc1OCC | – | inactive: -1.9% |
| CCOc1cccc(C(=O)NC(=S)Nc2ccc(Cl)cc2C(=O)O)c1 | inconclusive: 56.2 µM [inhibitor, partial curve, poor fit] | – |
| COc1ccccc1N1CCN(C(=O)Cn2ncc3c(=O)oc4ccc(C)cc4c32)CC1 | inconclusive: 70.8 µM [inhibitor, partial curve] | – |

| SMILES | Potency | max response, negative = inhibition |
| --- | --- | --- |
| COCCNc1ncnc2ccc(-c3ccccc3C)cc12 | inconclusive: 89.1 µM [inhibitor, single point] | – |
| O=C(NCc1ccco1)c1cccnc1-c1nc2ccccc2s1 | inconclusive: 89.1 µM [inhibitor, single point] | – |
| C=CCc1cc(/C=C/c2nc(O)c([N+](=O)[O-])c(=O)[nH]2)cc(OC)c1O | active: 79.4 µM | – |
| COc1ccc(C(=O)/C=C/c2ccc(OC(=O)c3cc(OC)c(OC)c(OC)c3)cc2)cc1 | inconclusive: 7.08 µM [inhibitor, partial curve, poor fit] | – |
| CCOC(=O)C(NC(=O)c1ccccc1Cl)(Nc1ccc(C(F)(F)F)cc1)C(F)(F)F (centres undefined) | – | inactive: -2.42% |
| O=C(Oc1ccc(=O)n(-c2ccccc2)n1)c1ccc(F)cc1 | inconclusive: 79.4 µM [inhibitor, partial curve, poor fit] | – |
| C=CCn1cnc2c(nnn2Cc2ccc(F)cc2)c1=O | – | inactive: -8.35% |
| O=C(COc1cccc2ccccc12)NNC(=O)c1cnccn1 | – | inactive: -4.69% |
| Cc1ccc(C(=O)N2CC(=O)Nc3ccc(F)cc3C2c2ccccc2)cc1[N+](=O)[O-] (centres undefined) | inconclusive: 0.631 µM [inhibitor, full curve, poor fit] | – |
| Cc1ccc(N(CC(=O)N2CCc3ccccc3C2)S(C)(=O)=O)cc1 | – | inactive: 7.03% |
| COc1ccccc1Cn1cc(C(=O)c2ccc(C)cc2)c(=O)c2cc(F)cc(F)c21 | – | inactive: -3.06% |
| Cc1ccc(N2C(S)=C(C#N)C(=O)NC23CCCCC3)cc1 | active: 31.6 µM | – |
| Cc1ccc(C(C[N+](=O)[O-])Sc2ccc(N)cc2)cc1 (centres undefined) | active: 12.6 µM | – |
| COc1ccc(/C=C/C(=O)c2ccc(Cl)s2)cc1O | active: 79.4 µM | – |
| COc1ccc(C(CNC(=O)Cc2ccc(-c3ccccc3)cc2)N(C)C)cc1 (centres undefined) | – | inactive: 9.89% |
| CCS(=O)(=O)N1CCc2cc(C(=O)NCCc3ccc(OC)c(OC)c3)ccc21 | – | inactive: 21% |
| O=C(c1ccc(NS(=O)(=O)c2ccc3[nH]c(=O)[nH]c3c2)cc1)N1CCN(c2ccccc2)CC1 | inconclusive: 79.4 µM [inhibitor, single point] | – |

Already shown: entries from further up.

| SMILES | Potency | max response, negative = inhibition |
| --- | --- | --- |
| Cc1ccc(N2C(S)=C(C#N)C(=O)NC23CCCCC3)cc1 | active: 31.6 µM | – |
| Cc1ccc(C(C[N+](=O)[O-])Sc2ccc(N)cc2)cc1 (centres undefined) | active: 12.6 µM | – |
